Experimental data published in ChEMBL document CHEMBL1667789, “Synthesis of 4H-chromene, coumarin, 12H-chromeno[2,3-d]pyrimidine derivatives and some of their antimicrobial and cytotoxicity activities” (2011).

Tested on: Candida albicans
Assay: Antifungal activity against Candida albicans ATCC 10231 at 25 ug/ml by agar diffusion method
Type: functional
Method in brief: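 Agar diffusion on Sabouraud's agar. Fungal strains came from the NODCAR Microbiology laboratory culture collection. Mycostatine was the reference standard.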

## NYSTATIN
  inhibition zone (IZ): 22 mm
